In PubChem BioAssay (NCATS):
Inconclusive means that the source gave no clear call. Such entries were picked first, then a sample of the others. For part of these data: A potency beside an inconclusive call is a rough fit, not a confirmed value. Active and inactive are the calls of the source. Calls come from the whole dose curve; as a rule, active = well fitted curve in the direction sought with a large enough effect; inconclusive = small, poorly fitted or top-dose-only effect, or another doubt; inactive = no such curve, though single readings can be large; an effect the other way counts as inactive or inconclusive.

Experiments:
[1] = Quantitative High-Throughput drug screen in 47 multiple myeloma cell lines against the NCATS MIPE library collection: JIM1_ECACC cell viability assay (AID 1918964); conditions: JIM1 myeloma viability, CellTiter-Glo ATP luminescence, 48 h; viability (% of DMSO): at 45.8 µM (top of the series)
How it was run: (§1)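 Myeloma cell lines, 500 cells per well, exposed to MIPE 4.0 library compounds for 48 h at 37C, 5% CO2. Viability from ATP by CellTiter-Glo luminescence; normalised to DMSO (100%) and media-only (0%) wells.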

[2] = Quantitative High-Throughput drug screen in 47 multiple myeloma cell lines against the NCATS MIPE library collection: INA6_PLB cell viability assay (AID 1918965; note: nearly all actives have a fitted effect of over 55% in size); conditions: INA6 myeloma viability, CellTiter-Glo ATP luminescence, 48 h; viability (% of control): at 45.8 µM (top of the series)
How it was run: as §1

[3] = Quantitative High-Throughput drug screen in 47 multiple myeloma cell lines against the NCATS MIPE library collection: JJN3_DSMZ cell viability assay (AID 1918966; note: nearly all actives have a fitted effect of over 50% in size); conditions: JJN3 myeloma cells viability, CellTiter-Glo ATP, 48 h; viability, % of DMSO: at 45.8 µM (top of the series)
How it was run: as §1

[4] = Quantitative High-Throughput drug screen in 47 multiple myeloma cell lines against the NCATS MIPE library collection: Karpas25_ECACC cell viability assay (AID 1918968; note: nearly all actives have a fitted effect of over 35% in size); conditions: Karpas25 myeloma viability, CellTiter-Glo ATP, 48 h; viability (% of control): at 45.8 µM (top of the series)
How it was run: as §1

[5] = Quantitative High-Throughput drug screen in 47 multiple myeloma cell lines against the NCATS MIPE library collection: KMS27_JCRB cell viability assay (AID 1918970); conditions: KMS27 myeloma cells, CellTiter-Glo ATP viability, 48 h; viability (% of DMSO): at 45.8 µM (top of the series); note: nearly all actives have a fitted effect of over 30% in size
How it was run: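 Myeloma cells (500 per well) were exposed to MIPE 4.0 compounds for 48 h at 37 °C, 5% CO2; viability was read as ATP luminescence with CellTiter-Glo, normalized to DMSO-only (100%) and media-only (0%) wells.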

[6] = Quantitative High-Throughput drug screen in 47 multiple myeloma cell lines against the NCATS MIPE library collection: KMS12BM_JCRB cell viability assay (AID 1918971); note: nearly all actives have a fitted effect of over 35% in size
How it was run: (§2)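 qHTS of the MIPE 4.0 collection: 500 myeloma cells/well, 48 h drug exposure at 37C in 5% CO2, then CellTiter-Glo for 5 min at room temperature before luminescence reading.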

[7] = Quantitative High-Throughput drug screen in 47 multiple myeloma cell lines against the NCATS MIPE library collection: KMS20_JCRB cell viability assay (AID 1918973); conditions: CellTiter-Glo ATP, 48 h; viability (% of DMSO): at 45.8 µM (top of the series); note: nearly all actives have a fitted effect of over 45% in size
How it was run: as §1

[8] = Quantitative High-Throughput drug screen in 47 multiple myeloma cell lines against the NCATS MIPE library collection: KMS26_JCRB cell viability assay (AID 1918975); conditions: KMS26 myeloma cells viability, CellTiter-Glo ATP, 48 h; viability (% of DMSO): at 45.8 µM (top of the series); note: nearly all actives have a fitted effect of over 45% in size
How it was run: as §2

[9] = Quantitative High-Throughput drug screen in 47 multiple myeloma cell lines against the NCATS MIPE library collection: MMM1_PLB cell viability assay (AID 1918976); note: nearly all actives have a fitted effect of over 35% in size
How it was run: (§3)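 500 cells/well per myeloma line exposed to pinned MIPE 4.0 compounds for 48 h at 37 °C, 5% CO2. Viability read as ATP by CellTiter-Glo luminescence, normalised to DMSO-only (100%) and media-only (0%) wells.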

[10] = Quantitative High-Throughput drug screen in 47 multiple myeloma cell lines against the NCATS MIPE library collection: OCIMY1_PLB cell viability assay (AID 1918979); note: nearly all actives have a fitted effect of over 35% in size
How it was run: as §3

[11] = Quantitative High-Throughput drug screen in 47 multiple myeloma cell lines against the NCATS MIPE library collection: MM1S_ATCC cell viability assay (AID 1918980); note: nearly all actives have a fitted effect of over 45% in size
How it was run: as §3

[12] = Quantitative High-Throughput drug screen in 47 multiple myeloma cell lines against the NCATS MIPE library collection: MM1R_ATCC cell viability assay (AID 1918981); note: nearly all actives have a fitted effect of over 35% in size
How it was run: as §3

[13] = Quantitative High-Throughput drug screen in 47 multiple myeloma cell lines against the NCATS MIPE library collection: LP1_DSMZ cell viability assay (AID 1918982); note: nearly all actives have a fitted effect of over 35% in size
How it was run: as §3

[14] = Quantitative High-Throughput drug screen in 47 multiple myeloma cell lines against the NCATS MIPE library collection: KMS21BM_JCRB cell viability assay (AID 1918974); conditions: ATP luminescence, 48 h; viability: at 45.8 µM (top of the series) unless noted
How it was run: as §1

[15] = Quantitative High-Throughput drug screen in 47 multiple myeloma cell lines against the NCATS MIPE library collection: MOLP8_DSMZ cell viability assay (AID 1918977); conditions: MOLP8 myeloma viability, CellTiter-Glo ATP luminescence, 48 h; viability (% of control): at 45.8 µM (top of the series); note: nearly all actives have a fitted effect of over 45% in size
How it was run: as §3

[16] = Quantitative High-Throughput drug screen in 47 multiple myeloma cell lines against the NCATS MIPE library collection: KMS28PE_JCRB cell viability assay (AID 1918983); note: nearly all actives have a fitted effect of over 35% in size
How it was run: as §3

[17] = Quantitative High-Throughput drug screen in 47 multiple myeloma cell lines against the NCATS MIPE library collection: KMS12PE_JCRB cell viability assay (AID 1918972); conditions: KMS12PE myeloma viability, CellTiter-Glo ATP, 48 h; viability: at 45.8 µM (top of the series); note: nearly all actives have a fitted effect of over 30% in size
How it was run: as §1

[18] = Quantitative High-Throughput drug screen in 47 multiple myeloma cell lines against the NCATS MIPE library collection: NCIH929_DSMZ cell viability assay (AID 1918978); note: nearly all actives have a fitted effect of over 35% in size
How it was run: as §3
Potency is the fitted concentration of half-maximal effect.

Compound	Potency [1]	Potency [2]	Potency [3]	Potency [4]	Potency [5]	Potency [6]	Potency [7]	Potency [8]	Potency [9]	Potency [10]	Potency [11]	Potency [12]	Potency [13]	Potency [14]	Potency [15]	Potency [16]	Potency [17]	Potency [18]	viability (% of DMSO) [1]
CCn1cc(C(=O)O)c(=O)c2ccc(C)nc21	inactive	inconclusive: 6.62 µM [rising, partial curve, poor fit]	inconclusive: 1.87 µM [rising, partial curve]	inactive	inactive	inconclusive: 0.0019 µM [rising, full curve, poor fit]	inconclusive: 10.5 µM [rising, single point]	inconclusive: 0.0372 µM [rising, full curve, poor fit]	inconclusive: 0.418 µM [rising, full curve, poor fit]	inconclusive: 0.0012 µM [rising, full curve, poor fit]	inconclusive: 0.001 µM	inactive	inactive						
NC(=O)OCC(COC(N)=O)c1ccccc1	inconclusive: 0.0935 µM [cytotoxic, full curve, poor fit]	inactive	inconclusive: 0.0066 µM [cytotoxic, full curve, poor fit]	inconclusive: 8.33 µM [cytotoxic, partial curve, poor fit]		inactive	inactive	inconclusive: 2.96 µM [cytotoxic, full curve, poor fit]	inconclusive: 2.96 µM [cytotoxic, full curve, poor fit]					inconclusive: 33.2 µM [rising, single point]	inconclusive: 0.0012 µM [cytotoxic, full curve, poor fit]	inactive			
CCOC(=O)C=C[C@H](C[C@@H]1CCNC1=O)NC(=O)[C@@H](CC(=O)[C@@H](NC(=O)c1cc(C)on1)C(C)C)Cc1ccc(F)cc1	inconclusive: 1.87 µM [rising, full curve]	inconclusive: 0.0083 µM [rising, full curve, poor fit]	inactive	inactive		inconclusive: 0.0019 µM [rising, full curve, poor fit]	inactive		inconclusive: 0.0187 µM [rising, full curve, poor fit]		inactive			inconclusive: 0.743 µM [cytotoxic, full curve, poor fit]	inconclusive: 2.96 µM [rising, partial curve, poor fit]				
CCN(CCO)CCCC(C)Nc1ccnc2cc(Cl)ccc12 (stereo not drawn)	inactive	inconclusive: 5.9 µM [rising, partial curve]	inactive	inconclusive: 0.0021 µM [rising, full curve, poor fit]		inconclusive: 0.0042 µM [rising, full curve, poor fit]	inconclusive: 2.64 µM [rising, full curve, poor fit]		inconclusive: 0.0166 µM [rising, full curve, poor fit]		inconclusive: 0.0015 µM [rising, full curve, poor fit]	inconclusive: 37.2 µM [cytotoxic, single point]	inactive	inactive	inactive				
O=C(C1CC1)N1CC[C@@H](Cn2c(-c3ccc(-c4ccc5occc5c4)cc3)nc3cnccc32)C1	inconclusive: 37.2 µM [cytotoxic, single point]	active: 20.9 µM	inconclusive: 0.0132 µM [rising, full curve, poor fit]	inconclusive: 18.7 µM [cytotoxic, partial curve]	inconclusive: 37.2 µM [cytotoxic, single point]	inconclusive: 18.7 µM [cytotoxic, partial curve, poor fit]	inconclusive: 8.33 µM [cytotoxic, partial curve, poor fit]	inconclusive: 3.72 µM [cytotoxic, partial curve, poor fit]	inconclusive: 26.4 µM [cytotoxic, single point]		inactive	inconclusive: 9.35 µM [cytotoxic, partial curve, poor fit]	active: 10.5 µM		inconclusive: 23.5 µM [cytotoxic, partial curve, poor fit]	inactive	active: 29.6 µM	inactive	
C#CCN[C@@H]1CCc2ccccc21	inconclusive: 6.62 µM [cytotoxic, full curve, poor fit]	inconclusive: 23.5 µM [cytotoxic, partial curve, poor fit]	inconclusive: 20.9 µM [cytotoxic, partial curve, poor fit]	inconclusive: 0.0662 µM [cytotoxic, full curve, poor fit]	inconclusive: 29.6 µM [cytotoxic, partial curve, poor fit]		inactive	inactive			inactive		inactive	inconclusive: 37.2 µM [rising, partial curve]	inconclusive: 20.9 µM [cytotoxic, partial curve]	inconclusive: 23.5 µM [cytotoxic, single point]	inactive	inactive	
Cn1c(=O)c(Oc2ccc(F)cc2F)cc2cnc(NC3CCOCC3)nc21		inconclusive: 18.7 µM [cytotoxic, partial curve, poor fit]	inconclusive: 0.209 µM [cytotoxic, full curve, poor fit]	inconclusive: 7.43 µM [cytotoxic, partial curve, poor fit]			inactive	inactive		inconclusive: 13.2 µM [cytotoxic, partial curve, poor fit]	inconclusive: 33.2 µM [cytotoxic, single point]				inconclusive: 0.833 µM [cytotoxic, full curve, poor fit]	inactive			inconclusive: 54.9% [cytotoxic]
CC(C)(C)NCC(O)c1ccc(O)c(CO)c1 (stereo not drawn)	inconclusive: 0.833 µM [cytotoxic, full curve, poor fit]	inactive	inconclusive: 0.264 µM [cytotoxic, full curve, poor fit]		inconclusive: 1.87 µM [cytotoxic, full curve, poor fit]	inconclusive: 0.118 µM [cytotoxic, partial curve, poor fit]	inactive	inconclusive: 0.001 µM [cytotoxic]	inconclusive: 6.62 µM [cytotoxic, full curve, poor fit]	inconclusive: 18.7 µM [rising, partial curve, poor fit]				inactive	inconclusive: 9.35 µM [cytotoxic, partial curve, poor fit]	inconclusive: 0.118 µM [cytotoxic, full curve, poor fit]			
CC(C)C(C)C=CC(C)C1CCC2C3=CC=C4CC(O)CCC4(C)C3CCC21C (stereo not drawn)	inconclusive: 13.2 µM [cytotoxic, partial curve, poor fit]	inconclusive: 0.148 µM [rising, full curve, poor fit]	inconclusive: 9.35 µM [cytotoxic, full curve, poor fit]	inactive	inconclusive: 23.5 µM [cytotoxic, single point]	inactive	inconclusive: 0.0019 µM [rising, full curve, poor fit]	inconclusive: 23.5 µM [cytotoxic, single point]	inconclusive: 9.35 µM [cytotoxic, partial curve, poor fit]		inconclusive: 26.4 µM [cytotoxic, single point]	inconclusive: 5.9 µM [cytotoxic, partial curve, poor fit]		inconclusive: 6.62 µM [cytotoxic, partial curve, poor fit]	inactive				
COc1ccccc1N1CCN(CC(O)COc2cccc3ccccc23)CC1 (stereo not drawn)	inconclusive: 0.132 µM [cytotoxic, full curve, poor fit]	inconclusive: 4.69 µM [cytotoxic, full curve, poor fit]	inactive	active: 11.8 µM	inconclusive: 0.118 µM [cytotoxic, full curve, poor fit]	inconclusive: 6.62 µM [cytotoxic, full curve, poor fit]	inconclusive: 1.48 µM [cytotoxic, full curve, poor fit]	inconclusive: 4.18 µM [cytotoxic, full curve, poor fit]		inactive	inconclusive: 13.2 µM [cytotoxic, partial curve, poor fit]	inconclusive: 4.18 µM [cytotoxic, partial curve, poor fit]	inactive	inconclusive: 0.105 µM [cytotoxic, full curve, poor fit]	inactive				
COc1cccc([C@@H](C)NCCCc2ccccc2Cl)c1	inconclusive: 41.8 µM [cytotoxic, single point]	inconclusive: 37.2 µM [cytotoxic, single point]	inactive	inconclusive: 23.5 µM [cytotoxic, partial curve]	inconclusive: 23.5 µM [cytotoxic, partial curve]	inactive	inconclusive: 0.0118 µM [cytotoxic, full curve, poor fit]	inactive			inconclusive: 29.6 µM [cytotoxic, single point]		inactive	active: 16.6 µM			inconclusive: 29.6 µM [cytotoxic, single point]	inconclusive: 33.2 µM [cytotoxic, single point]	
